Results are given in words; binding and its absence hold for the method and conditions named. Binding seen in cells or lysates may run through a third protein. For part of these data: A result given as binding can be weak or reduced; the word gives no strength. Where a sequence is shown, tags or fusion partners need not be part of it.
T1: HA-tagged endothelial lipase (LIPG-HA) (UniProt Q9Y5X9)
T1 sequence: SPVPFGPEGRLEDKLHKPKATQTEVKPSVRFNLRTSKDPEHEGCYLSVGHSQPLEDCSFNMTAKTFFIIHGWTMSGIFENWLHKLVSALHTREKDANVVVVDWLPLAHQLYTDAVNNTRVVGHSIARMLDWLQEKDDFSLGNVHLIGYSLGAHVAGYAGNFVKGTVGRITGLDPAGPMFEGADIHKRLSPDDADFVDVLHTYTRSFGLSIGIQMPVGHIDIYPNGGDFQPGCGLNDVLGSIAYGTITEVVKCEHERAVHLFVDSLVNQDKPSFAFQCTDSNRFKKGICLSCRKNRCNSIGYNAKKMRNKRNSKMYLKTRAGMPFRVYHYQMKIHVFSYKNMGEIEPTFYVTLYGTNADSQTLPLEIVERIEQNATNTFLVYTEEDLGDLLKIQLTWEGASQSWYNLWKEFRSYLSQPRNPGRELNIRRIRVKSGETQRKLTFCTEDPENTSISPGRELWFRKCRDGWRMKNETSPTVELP


Key:
Assay in all cases: co-IP; HA-tagged LIPG (or its mutants) and Flag-tagged LHBs (or MHBs, SHBs, preS1 2–48 aa) overexpressed in Huh7 cells; lysates incubated with rabbit anti-HA or anti-Flag antibody overnight at 4°C, Protein G Mag Sepharose, immunoblotting
[1] = molecular target: T1, HA-tagged endothelial lipase (LIPG-HA)
[2] = molecular target: HBV small surface protein (SHBs) (hepatitis B virus)
[3] = molecular target: Flag-tagged HBV large surface protein (LHBs-Flag) (hepatitis B virus)
[4] = molecular target: HBV middle surface protein (MHBs) (hepatitis B virus)

Row | Molecule | binding [1] | binding [2] | binding [3] | binding [4]
1 | Flag-tagged HBV large surface protein (LHBs-Flag) (hepatitis B virus) | binds | – | – | –
2 | HA-tagged endothelial lipase (LIPG-HA) (enzyme, UniProt Q9Y5X9 21-500) SPVPFGPEGRLEDKLHKPKATQTEVKPSVRFNLRTSKDPEHEGCYLSVGHSQPLEDCSFNMTAKTFFIIHGWTMSGIFENWLHKLVSALHTREKDANVVVVDWLPLAHQLYTDAVNNTRVVGHSIARMLDWLQEKDDFSLGNVHLIGYSLGAHVAGYAGNFVKGTVGRITGLDPAGPMFEGADIHKRLSPDDADFVDVLHTYTRSFGLSIGIQMPVGHIDIYPNGGDFQPGCGLNDVLGSIAYGTITEVVKCEHERAVHLFVDSLVNQDKPSFAFQCTDSNRFKKGICLSCRKNRCNSIGYNAKKMRNKRNSKMYLKTRAGMPFRVYHYQMKIHVFSYKNMGEIEPTFYVTLYGTNADSQTLPLEIVERIEQNATNTFLVYTEEDLGDLLKIQLTWEGASQSWYNLWKEFRSYLSQPRNPGRELNIRRIRVKSGETQRKLTFCTEDPENTSISPGRELWFRKCRDGWRMKNETSPTVELP | – | no binding | binds | no binding
3 | LIPG N-glycosylation mutant N393A (enzyme, UniProt Q9Y5X9 21-500) SPVPFGPEGRLEDKLHKPKATQTEVKPSVRFNLRTSKDPEHEGCYLSVGHSQPLEDCSFNMTAKTFFIIHGWTMSGIFENWLHKLVSALHTREKDANVVVVDWLPLAHQLYTDAVNNTRVVGHSIARMLDWLQEKDDFSLGNVHLIGYSLGAHVAGYAGNFVKGTVGRITGLDPAGPMFEGADIHKRLSPDDADFVDVLHTYTRSFGLSIGIQMPVGHIDIYPNGGDFQPGCGLNDVLGSIAYGTITEVVKCEHERAVHLFVDSLVNQDKPSFAFQCTDSNRFKKGICLSCRKNRCNSIGYNAKKMRNKRNSKMYLKTRAGMPFRVYHYQMKIHVFSYKNMGEIEPTFYVTLYGTNADSQTLPLEIVERIEQAATNTFLVYTEEDLGDLLKIQLTWEGASQSWYNLWKEFRSYLSQPRNPGRELNIRRIRVKSGETQRKLTFCTEDPENTSISPGRELWFRKCRDGWRMKNETSPTVELP | – | – | binds | –
4 | LIPG noncleaved mutant R330A (enzyme, UniProt Q9Y5X9 21-500) SPVPFGPEGRLEDKLHKPKATQTEVKPSVRFNLRTSKDPEHEGCYLSVGHSQPLEDCSFNMTAKTFFIIHGWTMSGIFENWLHKLVSALHTREKDANVVVVDWLPLAHQLYTDAVNNTRVVGHSIARMLDWLQEKDDFSLGNVHLIGYSLGAHVAGYAGNFVKGTVGRITGLDPAGPMFEGADIHKRLSPDDADFVDVLHTYTRSFGLSIGIQMPVGHIDIYPNGGDFQPGCGLNDVLGSIAYGTITEVVKCEHERAVHLFVDSLVNQDKPSFAFQCTDSNRFKKGICLSCRKNRCNSIGYNAKKMRNKANSKMYLKTRAGMPFRVYHYQMKIHVFSYKNMGEIEPTFYVTLYGTNADSQTLPLEIVERIEQNATNTFLVYTEEDLGDLLKIQLTWEGASQSWYNLWKEFRSYLSQPRNPGRELNIRRIRVKSGETQRKLTFCTEDPENTSISPGRELWFRKCRDGWRMKNETSPTVELP | – | – | binds | –
